Results are given in words; binding and its absence hold for the method and conditions named.
Key:
[1] = biological target: human RANK (human); test: condition: about log 3.9 on the axis LoG Con.(ng/mL), about 8000 ng/mL; ELISA on coated recombinant TNFRSF proteins, serially diluted antibody (Example 17)
[2] = biological target: human RANK (human); test: ELISA, coated recombinant protein

- binding [1]: no binding
- binding [2]: no binding
B1: 13A2-VH3VL3 (antibody, human IgG2, kappa, V domains shown)
VH: QVQLQESGPGLVKPSDTLSLTCAVSGYSITTNYYWNWIRQPPGNKLEWMGYINYDGSNNYNPSLKNRITISVDTSKNQFSLKLSSVTAVDTAVYYCARLDYWGQGTLVTVSS
VL: DVVLTQSPLSLPVTLGQPASISCRSSQSLENSNGNTFLNWFQQRPGQSPRLLIYKVSNRFSGVPDRFSGSGSGTDFTLKISRVEAEDVGVYFCLQVTHVPFTFGSGTKLEIKR

Source: US10654939
